Results: PubChem BioAssay AID1625 (Sanford-Burnham Center for Chemical Genomics, 2009)
The list shows a part of the results.

Assay: up-regulation of insulin promoter-GFP reporter – imaging, high-content screening, mouse beta cells (AID 1625);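 further: total cells summed across four imaged fields per well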
Conditions: MIN6 insulin promoter-GFP reporter, measured here: cytotoxicity, nuclei count, at 5 µM
In the case of `CN(C(=O)Cc1ccc(Cl)c(Cl)c1)[C@@H]1CCCC[C@H]1N1CCCC1`, the cell count is reported as 1460 cells. With `CC(C)/C=N\N=C(\N)N[N+](=O)[O-]` the cell count was 1260 cells. For `O=[As](O)(c1ccccc1Br)c1ccccc1Br`, the cell count was 1430 cells. With `CC(C)(C)C(=O)NC(Sc1ncccn1)C(Cl)(Cl)Cl` (stereo not drawn) the cell count was 1360 cells. `Clc1n[nH]nc1-c1nn[nH][15n]1` showed a cell count of 1640 cells. Work on `O=[N+]([O-])c1cc([N+](=O)[O-])c(-n2nnc3ccccc32)c([N+](=O)[O-])c1` yielded a cell count of 1420 cells. `O=P1(Nc2ccccn2)COc2ccccc2OC1` gave a cell count of 1210 cells. In the case of `CCOP(=O)(Nc1ccc(C)cn1)OCC`, the cell count is reported as 953 cells. For `CCCOc1ccc(NP(C)(=O)Oc2ccc(Cl)cc2)cc1` (stereo not drawn), the cell count was 1490 cells. In the case of `CP(=O)(Nc1ccc(SC(F)(F)F)cc1)Oc1ccccc1` (stereo not drawn), the cell count is reported as 1450 cells. For `Nc1cccc([As](=O)(O)c2ccccc2)c1`, the cell count was 1080 cells. `O=[As](O)(c1cccs1)c1cccs1` showed a cell count of 963 cells. Compound `Cc1ccc(OCC(=O)OC2CN3CCC2CC3)cc1` (stereo not drawn) has a cell count of 1610 cells. `O=P1(Nc2ccc(Br)cn2)COc2ccccc2OC1` gave a cell count of 1040 cells. For `CN1CCCCC1COC(=O)C1(O)c2ccccc2CCc2ccccc21` (stereo not drawn), the cell count was 1170 cells. With `COc1ccccc1OP(C)(=O)Nc1c(C)cccc1C` (stereo not drawn) the cell count was 1550 cells. `O=P1(Nc2ncccn2)COc2ccccc2OC1` showed a cell count of 1040 cells. In the case of `CCOC(=O)C(CC)C1=NC(C)(C)Cc2ccccc21.O=[N+]([O-])c1cc([N+](=O)[O-])c(O)c([N+](=O)[O-])c1` (stereo not drawn), the cell count is reported as 1420 cells. Work on `CN(C)C1(CNC(=O)c2ccc(S(C)(=O)=O)cc2)CCCCC1` yielded a cell count of 1330 cells. Work on `O=[N+]([O-])c1cc([N+](=O)[O-])c(Nc2nnnn2CCO)c([N+](=O)[O-])c1` yielded a cell count of 991 cells. Compound `O=C(/C=C/c1ccccc1)OC1CN2CCC1CC2` (stereo not drawn) has a cell count of 1300 cells. In the case of `CC1CCC(C(C)C)C(OP(=O)(Nc2ccccn2)c2ccccc2)C1` (stereo not drawn), the cell count is reported as 1300 cells. Work on `Cc1nn(-c2ccccc2)c2c1P(=O)(N1CCOCC1)N(C)C(c1ccccc1)=N2` (stereo not drawn) yielded a cell count of 1220 cells. Work on `COc1cc(C2NCCC3(OCCO3)C2(C)C)cc(OC)c1OC.O=[N+]([O-])c1cc([N+](=O)[O-])c(O)c([N+](=O)[O-])c1` (stereo not drawn) yielded a cell count of 1320 cells. Compound `CN(C(=O)Cc1ccccc1)[C@@H]1CC[C@]2(CCCO2)C[C@H]1N1CCCC1` has a cell count of 956 cells. Work on `CCOP1(=S)c2c(C)nn(CCC#N)c2N=C(c2ccc(F)cc2)N1C` (stereo not drawn) yielded a cell count of 1010 cells. Compound `CC1=NCCc2c1[nH]c1ccccc21.O=[N+]([O-])c1cc([N+](=O)[O-])c(O)c([N+](=O)[O-])c1` has a cell count of 1330 cells. `O=[N+]([O-])c1ccc2c(c1)nnn2O` showed a cell count of 933 cells. `O=C(O)COc1ccc([As](=O)(O)O)cc1[N+](=O)[O-]` gave a cell count of 1390 cells. For `Nc1ccccc1[As](=O)(O)c1ccccc1`, the cell count was 1100 cells. For `O=P(Nc1nccs1)(c1ccccc1)c1nc2ccccc2s1` (stereo not drawn), the cell count was 759 cells. `O=C(O)c1cccc(Nc2c([N+](=O)[O-])cc([N+](=O)[O-])cc2[N+](=O)[O-])c1` showed a cell count of 987 cells. Work on `CCOP1(=S)c2c(C)nn(CCC#N)c2N=C(c2ccccc2F)N1C` (stereo not drawn) yielded a cell count of 1290 cells. In the case of `CS(=O)(=O)c1cc([N+](=O)[O-])c2no[n+]([O-])c2c1`, the cell count is reported as 1400 cells. For `CCOP(=O)(Nc1cccc2ccccc12)OCC`, the cell count was 1210 cells. `Nc1cccc2c([As](=O)(O)O)cccc12` gave a cell count of 1340 cells. For `Cc1ccc(NCCc2c([N+](=O)[O-])cc([N+](=O)[O-])cc2[N+](=O)[O-])cc1`, the cell count was 1390 cells. `CP(=O)(Nc1cccc(Br)c1)Oc1ccccc1` (stereo not drawn) showed a cell count of 996 cells. With `Cc1ccc(C)c(NP(C)(=O)Oc2ccccc2)c1` (stereo not drawn) the cell count was 1220 cells. In the case of `CCCOP(=S)(Nc1nc(N)cc(=O)[nH]1)OCCC`, the cell count is reported as 903 cells. `Cc1cc(C)cc(OP(C)(=O)Nc2ccc(C)cc2C)c1` (stereo not drawn) gave a cell count of 900 cells. In the case of `Cc1cccc(OCC(=O)OC2CN3CCC2CC3)c1` (stereo not drawn), the cell count is reported as 1710 cells. With `O=[As](O)(c1cccc(O)c1)c1cccc(O)c1` the cell count was 1440 cells. `CCOC(=O)c1ccc(NP(C)(=O)Oc2cc(C)cc(C)c2)cc1` (stereo not drawn) showed a cell count of 1440 cells. Compound `O=C(OC1CN2CCC1CC2)c1ccc(Cl)cc1` (stereo not drawn) has a cell count of 1320 cells. With `COc1ccccc1OP(C)(=O)Nc1cccc(Br)c1` (stereo not drawn) the cell count was 872 cells. In the case of `O=[As](O)(O)c1cccnc1`, the cell count is reported as 1090 cells. For `COc1cc(C(=O)NCC2(N3CCOCC3)CCCCC2)cc(Cl)c1OC(C)C`, the cell count was 1660 cells. Compound `COc1ccc(N/C(=N/P(=O)(N2CCOCC2)N2CCOCC2)N2CCOCC2)cc1` has a cell count of 1050 cells. In the case of `COc1cc(I)ccc1[As](=O)(O)O`, the cell count is reported as 1060 cells. With `COc1ccc2nc(NP(=O)(c3ccccc3)c3ccccc3)sc2c1` the cell count was 1410 cells. With `Cc1c2c(nc3ccccc13)SC(C(Cl)Cl)C2` (stereo not drawn) the cell count was 1590 cells. In the case of `CCN(CC)CCCOC(=O)C(O)(c1ccccc1)c1ccccc1`, the cell count is reported as 1290 cells. With `Cc1cc(=O)[nH]c(N[N+](=O)[O-])n1` the cell count was 1680 cells. `O=C(OC1CN2CCC1CC2)C12CC3CC(CC(C3)C1)C2` (stereo not drawn) showed a cell count of 929 cells. Compound `COc1ccc(OP(C)(=O)Nc2cccc(F)c2)cc1` (stereo not drawn) has a cell count of 924 cells. For `O=[N+]([O-])c1cc([N+](=O)[O-])c(-c2ccn[nH]2)s1`, the cell count was 754 cells. In the case of `CC(C)NC(=O)NP(=O)(Oc1ccccc1)Oc1ccccc1`, the cell count is reported as 1280 cells. `COc1ccccc1OP(C)(=O)Nc1cc(Cl)ccc1C` (stereo not drawn) showed a cell count of 1620 cells. In the case of `Cc1cc(C)cc(OP(C)(N)=O)c1` (stereo not drawn), the cell count is reported as 1120 cells. For `ClCCSc1nnc(-c2cccnc2)o1`, the cell count was 1190 cells. With `CCOC(=O)c1ccc(NP(C)(=O)Oc2ccccc2)cc1` (stereo not drawn) the cell count was 1460 cells. `CC(C)c1ccc(OP(=O)(Nc2ccccn2)Oc2ccccc2F)cc1` (stereo not drawn) showed a cell count of 1130 cells. In the case of `Cc1ccc(NP(C)(=O)Oc2ccccc2)c(C)c1` (stereo not drawn), the cell count is reported as 959 cells. Compound `COc1ccccc1OP(C)(=O)Nc1ccc(C)cc1` (stereo not drawn) has a cell count of 1270 cells. For `Cc1cccc(C)c1OP(C)(N)=O` (stereo not drawn), the cell count was 1090 cells. In the case of `Cc1ccc(OP(=O)(Nc2ccc([N+](=O)[O-])cn2)Oc2ccc(C)cc2)cc1`, the cell count is reported as 1420 cells. Work on `CC(C)(C)c1ccc(OP(C)(=O)Nc2ccc(SC(F)(F)F)cc2)cc1` (stereo not drawn) yielded a cell count of 1200 cells. Compound `O=[N+]([O-])c1ccc2c(c1)C=Nc1ccccc1O2` has a cell count of 1130 cells. For `Cc1ccc2nc3c(c(C)c2c1)CC(C(Cl)Cl)S3` (stereo not drawn), the cell count was 1430 cells. Compound `C[As](=O)(O)c1cccc(C(=O)O)c1` has a cell count of 1380 cells. For `O=[As](O)(c1ccc(O)cc1)c1ccccc1O`, the cell count was 1050 cells. For `COc1ccccc1OP(C)(=O)Nc1ccccc1` (stereo not drawn), the cell count was 1320 cells. For `Cc1cc(SC(NC=O)C(Cl)(Cl)Cl)ncn1` (stereo not drawn), the cell count was 1270 cells. In the case of `O=P(Nc1ccccn1)(c1cccc2ccccc12)c1cccc2ccccc12`, the cell count is reported as 1480 cells. `O=[N+]([O-])c1ccc(Nc2ccc(Oc3ccc([N+](=O)[O-])cc3[N+](=O)[O-])cc2)c([N+](=O)[O-])c1` gave a cell count of 1230 cells. In the case of `CP(=O)(Nc1ccccc1Br)Oc1ccccc1` (stereo not drawn), the cell count is reported as 1320 cells. With `CP(=S)(Nn1cnnc1)Oc1ccccc1` (stereo not drawn) the cell count was 1210 cells. For `CCOC(=O)Nc1cccc([As](=O)(O)O)c1`, the cell count was 1440 cells. In the case of `Cc1cc(SC(NC(=O)c2ccccc2)C(Cl)(Cl)Cl)nc(C(C)C)n1` (stereo not drawn), the cell count is reported as 1330 cells. For `CCOC(=O)Nc1ccc([As](=O)(O)O)c(O)c1`, the cell count was 1110 cells. `CCC(C)N(CC(C)C)C(=S)SC(NC(C)=O)C(Cl)(Cl)Cl` (stereo not drawn) gave a cell count of 1210 cells. For `CP(=O)(Nc1ccccn1)Oc1ccc(Cl)cc1` (stereo not drawn), the cell count was 981 cells. `CCOP(C)(=S)SCC(=O)NC(C)C(=O)O` (stereo not drawn) showed a cell count of 1290 cells. `CCOC(=O)c1ccc(NP(C)(=O)Oc2ccc(OC)cc2)cc1` (stereo not drawn) gave a cell count of 1410 cells. In the case of `CCOC(=O)c1ccc(NC(=O)C(C)(CCl)SC)cc1` (stereo not drawn), the cell count is reported as 1160 cells. Compound `Cc1cc(C)cc(OP(C)(=O)Nc2ccc(SC(F)(F)F)cc2)c1` (stereo not drawn) has a cell count of 1520 cells. Compound `CP(=O)(NC(=O)Nc1ccccc1)Oc1ccccc1` (stereo not drawn) has a cell count of 1040 cells. `O=C(COc1ccccc1)OC1CN2CCC1CC2` (stereo not drawn) showed a cell count of 963 cells. With `CCc1ccc(OP(C)(=O)N2CCN(c3ccc([N+](=O)[O-])cc3)CC2)cc1` (stereo not drawn) the cell count was 1060 cells. `CP(=O)(Oc1ccccc1)OC(c1ccccc1)C(F)(F)F` (stereo not drawn) gave a cell count of 1430 cells. `COP1(=S)c2c(C)nn(CCC#N)c2N=C(c2ccc(F)cc2)N1C` (stereo not drawn) gave a cell count of 1420 cells. Work on `CP(=O)(Nc1ccc(SC(F)(F)F)cc1)Oc1ccc(Cl)cc1` (stereo not drawn) yielded a cell count of 1010 cells. Work on `Cc1cccc(C)c1OP(C)(=O)Nc1ccc(SC(F)(F)F)cc1` (stereo not drawn) yielded a cell count of 1360 cells. In the case of `CC1CCN(C(=O)Oc2c(Cl)cc(Cl)c3cccnc23)CC1`, the cell count is reported as 1390 cells. In the case of `CC(C)=N/N=C(\N)N[N+](=O)[O-]`, the cell count is reported as 1460 cells. Compound `CN(C)C(=O)c1c([N+](=O)[O-])cc([N+](=O)[O-])cc1[N+](=O)[O-]` has a cell count of 655 cells. Compound `CP(=O)(Nc1ccc(Cl)cc1)Oc1ccc(F)cc1` (stereo not drawn) has a cell count of 1580 cells. For `CCN(/C(=N/P(=O)(N1CCOCC1)N1CCOCC1)N1CCOCC1)c1ccc(OC)cc1`, the cell count was 1230 cells. Work on `C[N+]1=C2C=CC=CC=C2SC12C([N+](=O)[O-])=CC([N+](=O)[O-])=C[C-]2[N+](=O)[O-]` (stereo not drawn) yielded a cell count of 958 cells. Compound `COc1ccccc1OP(C)(=O)Nc1ccccc1Br` (stereo not drawn) has a cell count of 1140 cells. For `Nc1ccc([As](=O)(O)c2ccc(N)cc2)cc1`, the cell count was 1380 cells. `CCc1ccc(OP(C)(=O)Nc2cccnc2)cc1` (stereo not drawn) gave a cell count of 1250 cells. Work on `CCc1nc2c(n1)c1c(non1O)c1c2no[n+]1[O-]` yielded a cell count of 1350 cells. `CP(=O)(Oc1ccccc1)N1CCOC1=O` (stereo not drawn) showed a cell count of 1040 cells. For `Cc1ccc(NP(=O)(Oc2ccccc2)Oc2ccccc2)nc1`, the cell count was 1420 cells. `O=C(OCCCN1CCCC1)C(O)(c1ccccc1)C1CCCCC1` (stereo not drawn) showed a cell count of 1070 cells. `COc1ccccc1OP(C)(=O)Nc1c(C)n(C)n(-c2ccccc2)c1=O` (stereo not drawn) gave a cell count of 1260 cells. `COc1ccc(OP(C)(=O)Nc2ccc(Br)cc2)cc1` (stereo not drawn) showed a cell count of 1370 cells. Compound `COc1ccc(C2=NCC(CBr)S2)cc1` (stereo not drawn) has a cell count of 1130 cells. For `CCN(CC)CC(O)COC(=O)C(O)(c1ccccc1)C1CCCCC1` (stereo not drawn), the cell count was 1190 cells. `O=C(O)CNc1ccc([As](=O)(O)O)cc1` showed a cell count of 1340 cells. With `O=[N+]([O-])c1cccc(NC2=NCC(CBr)S2)c1` (stereo not drawn) the cell count was 1070 cells. Compound `O=[N+]([O-])c1ncn(CCn2ncnc2[N+](=O)[O-])n1` has a cell count of 1140 cells. Compound `CC(C)(C)C(=O)NC(Sc1ccncn1)C(Cl)(Cl)Cl` (stereo not drawn) has a cell count of 1010 cells. With `CP(=O)(OC12CC3CC(CC(C3)C1)C2)OC12CC3CC(CC(C3)C1)C2` the cell count was 951 cells. For `O=C(Nc1cc([As](=O)(O)O)ccc1O)c1ccccc1`, the cell count was 1380 cells. With `CP(=O)(Nc1ccc(Cl)cc1Cl)Oc1ccccc1` (stereo not drawn) the cell count was 1260 cells.
